Results published in the supplement of paper PMC3334620.
The full ranking holds about 33,000 sequences; the median of “E-score (-0.5 to 0.5)” is about -0.0034, and the highest 2% start at about 0.25. Some of the results follow.

The sequences below were run against T1, Yap3 (UniProt P38749) (assay: PBM E-score (8-mer binding enrichment) (E-score (-0.5 to 0.5)); higher = stronger / more preferred TF binding). Settings: protein concentration: 100 nM; construct: GST-full length.
T1 sequence: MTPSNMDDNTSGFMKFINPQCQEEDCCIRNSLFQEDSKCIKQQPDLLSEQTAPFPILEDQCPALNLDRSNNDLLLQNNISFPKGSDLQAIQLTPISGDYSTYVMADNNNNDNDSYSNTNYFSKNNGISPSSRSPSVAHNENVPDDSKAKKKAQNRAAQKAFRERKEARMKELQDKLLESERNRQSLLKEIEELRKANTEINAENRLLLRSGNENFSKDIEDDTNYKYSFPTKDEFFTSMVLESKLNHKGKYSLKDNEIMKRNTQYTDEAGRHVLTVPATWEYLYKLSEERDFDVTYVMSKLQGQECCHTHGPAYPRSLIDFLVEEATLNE
Experimental: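 Universal 'all 10-mer' protein binding microarrays (Agilent AMADID 015681) probed with GST-tagged S. cerevisiae TFs (full-length or DBD) made by in vitro transcription/translation (PURExpress), about 100-200 nM. Bound TF was detected with fluorescent anti-GST. Each ungapped 8-mer (which stands for itself and its reverse complement) is scored by the PBM enrichment score (E-score), a modified Wilcoxon-Mann-Whitney statistic from -0.5 to +0.5, computed with the Universal PBM Analysis Suite. Scale: above 0.35 generally sequence-specific binding.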
With TTCACCAA the “PBM E-score” value was 0.108.
For AGAAGCCA, the “PBM E-score” value was 0.044.
ATGAGGAG was tested, and the “PBM E-score” value was -0.0578.
In the case of CCCGTCAC, the “PBM E-score” value is reported as -0.0882.
ATCGATGC was tested, and the “PBM E-score” value was 0.133.
With ACTTAATA the “PBM E-score” value was 0.154.
For AGCCGTGC, the “PBM E-score” value was -0.233.
CAAAGCTA was tested, and the “PBM E-score” value was 0.0774.
For ACGCCAAA, the “PBM E-score” value was -0.00737.
In the case of CCGCGAAA, the “PBM E-score” value is reported as -5e-05.
In the case of GGATTGAC, the “PBM E-score” value is reported as 0.0323.
For AACACTAC, the “PBM E-score” value was 0.132.
For CGGCACAG, the “PBM E-score” value was -0.11.
In the case of GAGATTTA, the “PBM E-score” value is reported as -0.116.
For GTCGTACA, the “PBM E-score” value was 0.174.
With CCACACGG the “PBM E-score” value was -0.162.
With ATGCGGAA the “PBM E-score” value was 0.0117.
With CACTATGC the “PBM E-score” value was 0.068.
For AGAATCGC, the “PBM E-score” value was -0.0138.
With ATCTCCAC the “PBM E-score” value was -0.00177.
In the case of AATAAAAT, the “PBM E-score” value is reported as 0.239.
In the case of GCCTGGCA, the “PBM E-score” value is reported as -0.289.
In the case of GGTGTAGA, the “PBM E-score” value is reported as 0.0432.
With AGCACCGG the “PBM E-score” value was -0.177.
With AGCATCCT the “PBM E-score” value was 0.0013.
AGACATCT was tested, and the “PBM E-score” value was -0.0925.
GATTCCCA was tested, and the “PBM E-score” value was -0.077.
With AAGCGTTC the “PBM E-score” value was -0.0829.
For CGAATTCC, the “PBM E-score” value was 0.183.
For AGTCCCAC, the “PBM E-score” value was -0.141.
AAAGCTTA was tested, and the “PBM E-score” value was 0.0874.
ACAACCAA was tested, and the “PBM E-score” value was 0.11.
For GAGCATAC, the “PBM E-score” value was 0.118.
GCAACAAC was tested, and the “PBM E-score” value was -0.0413.
With CGAAATAA the “PBM E-score” value was 0.211.
In the case of TCACTTCA, the “PBM E-score” value is reported as 0.0508.
For ATGCAATA, the “PBM E-score” value was 0.112.
With AAGAGGAA the “PBM E-score” value was 0.0858.
In the case of AGGTTTGA, the “PBM E-score” value is reported as -0.014.
For ACATATTA, the “PBM E-score” value was 0.305.
For CTGGTAAG, the “PBM E-score” value was -0.0397.
In the case of TCAGCGCA, the “PBM E-score” value is reported as -0.216.
For GGCGGTAC, the “PBM E-score” value was -0.209.
GATGCGCA was tested, and the “PBM E-score” value was -0.0114.
For ATGTGTGG, the “PBM E-score” value was 0.0791.
AAACTAAC was tested, and the “PBM E-score” value was 0.232.
With AAGACACC the “PBM E-score” value was -0.0353.
With ATTAGTCC the “PBM E-score” value was 0.207.
In the case of GGAGCGTA, the “PBM E-score” value is reported as 0.0758.
With ACAAATAT the “PBM E-score” value was 0.274.
With AGACAACA the “PBM E-score” value was 0.0437.
In the case of TCTCTCAA, the “PBM E-score” value is reported as 0.153.
In the case of ACTCGTTA, the “PBM E-score” value is reported as -0.115.
In the case of CGTTTCAC, the “PBM E-score” value is reported as 0.0177.
With ACACGAAC the “PBM E-score” value was -0.0288.
CACTAACA was tested, and the “PBM E-score” value was 0.162.
For ATCGTCAT, the “PBM E-score” value was 0.248.
CGGGGCAA was tested, and the “PBM E-score” value was -0.0912.
For ACGACTGG, the “PBM E-score” value was -0.144.
In the case of CCTGCCTC, the “PBM E-score” value is reported as -0.113.
CCCGTACG was tested, and the “PBM E-score” value was -0.149.
For CCTTCAAC, the “PBM E-score” value was 0.0905.
With CTTTAAAG the “PBM E-score” value was -0.00848.
For CATGTCAG, the “PBM E-score” value was -0.123.
For CTGTCACC, the “PBM E-score” value was -0.108.
For GCTTGGCC, the “PBM E-score” value was -0.166.
With CTAGAATC the “PBM E-score” value was -0.0329.
With TCAGCCCA the “PBM E-score” value was -0.106.
CATCACTC was tested, and the “PBM E-score” value was -0.153.
In the case of AGTGAGCC, the “PBM E-score” value is reported as -0.0126.
With GATCAAAC the “PBM E-score” value was 0.031.
With AGTTGACG the “PBM E-score” value was 0.198.
With GAAGCCTA the “PBM E-score” value was -0.0617.
With CCCTCAGA the “PBM E-score” value was -0.154.
In the case of ATGCCTCC, the “PBM E-score” value is reported as -0.0944.
For GGGAGGAC, the “PBM E-score” value was -0.199.
ACCGAAGT was tested, and the “PBM E-score” value was 0.0663.
CGGACACA was tested, and the “PBM E-score” value was -0.138.
For GAACCCCC, the “PBM E-score” value was -0.473.
AATAGTCC was tested, and the “PBM E-score” value was -0.00891.
In the case of CAGGATCC, the “PBM E-score” value is reported as -0.0105.
With AATTTCCT the “PBM E-score” value was 0.13.
In the case of AGACTATA, the “PBM E-score” value is reported as 0.205.
With AGTAAACC the “PBM E-score” value was -0.0017.
CGACGTCA was tested, and the “PBM E-score” value was 0.0828.
With CAATTAAA the “PBM E-score” value was 0.22.
CGCTTGCC was tested, and the “PBM E-score” value was -0.069.
With CACGGACG the “PBM E-score” value was 0.0289.
With TTAGAGAA the “PBM E-score” value was -0.117.
AATATCCT was tested, and the “PBM E-score” value was 0.0852.
In the case of CCGGTCAG, the “PBM E-score” value is reported as -0.18.
With ATCCGGTC the “PBM E-score” value was -0.106.
For GTCCATAA, the “PBM E-score” value was -0.0433.
GCCGAAGA was tested, and the “PBM E-score” value was 0.119.
GGGGCAAA was tested, and the “PBM E-score” value was -0.0277.
CATCTAAA was tested, and the “PBM E-score” value was 0.0507.
For AAATGCCT, the “PBM E-score” value was 0.0646.
For GACATGTA, the “PBM E-score” value was 0.162.
With ACTGCAAC the “PBM E-score” value was -0.0198.
With GCCTAGCA the “PBM E-score” value was -0.237.
CGCTGCCG was tested, and the “PBM E-score” value was -0.265.
With GACGGGCC the “PBM E-score” value was -0.268.
In the case of TAACTAAA, the “PBM E-score” value is reported as 0.165.
CCGCGGCC was tested, and the “PBM E-score” value was -0.174.
For AGAATCTG, the “PBM E-score” value was 0.00295.
With GCTAAAAA the “PBM E-score” value was -0.0143.
In the case of CACGCATA, the “PBM E-score” value is reported as 0.0859.
With ACGTCTTA the “PBM E-score” value was -0.0638.
For CAGAGTAC, the “PBM E-score” value was -0.104.
For TGCCTAAA, the “PBM E-score” value was 0.0234.
CAACGCTG was tested, and the “PBM E-score” value was -0.0537.
In the case of AGCGTTTA, the “PBM E-score” value is reported as 0.0398.
In the case of GTCCGCTA, the “PBM E-score” value is reported as -0.057.
In the case of GAAGTGAA, the “PBM E-score” value is reported as 0.0581.
With AGCGCCCA the “PBM E-score” value was -0.303.
ACTAGGTG was tested, and the “PBM E-score” value was -0.0963.
In the case of GCGCATAA, the “PBM E-score” value is reported as 0.131.
With ATCTCCCA the “PBM E-score” value was 0.0495.
ATCTTACC was tested, and the “PBM E-score” value was -0.0311.
For GCATAGGA, the “PBM E-score” value was 0.00911.
In the case of ATTAGGTA, the “PBM E-score” value is reported as 0.167.
For GCGCCGCA, the “PBM E-score” value was 0.106.
For TCCCACCA, the “PBM E-score” value was -0.125.
CGGAACAG was tested, and the “PBM E-score” value was -0.0265.
GAAGCCGC was tested, and the “PBM E-score” value was -0.039.
For GACTGCTC, the “PBM E-score” value was -0.113.
For CAGGCATA, the “PBM E-score” value was -0.119.
With GATAGCAC the “PBM E-score” value was -0.081.
GGGACGGA was tested, and the “PBM E-score” value was -0.334.
In the case of AAGTACGA, the “PBM E-score” value is reported as 0.188.
For CGAACCAC, the “PBM E-score” value was -0.0638.
In the case of AACCGATT, the “PBM E-score” value is reported as 0.133.
With AGTGCTCC the “PBM E-score” value was -0.276.
In the case of AGAATCAG, the “PBM E-score” value is reported as 0.104.
For ATGTATCA, the “PBM E-score” value was 0.2.
In the case of GTAAATCA, the “PBM E-score” value is reported as 0.219.
In the case of AAAATGTT, the “PBM E-score” value is reported as 0.166.
In the case of GCTGGACC, the “PBM E-score” value is reported as -0.242.
With GAGTAATC the “PBM E-score” value was 0.103.
With CCCAGACC the “PBM E-score” value was -0.195.
CGAGTCCA was tested, and the “PBM E-score” value was -0.178.
GAGCGAAA was tested, and the “PBM E-score” value was 0.125.
CTGGGCTC was tested, and the “PBM E-score” value was -0.267.
ACTTAACT was tested, and the “PBM E-score” value was 0.171.
In the case of CTCGGGCC, the “PBM E-score” value is reported as -0.225.
CAATGGAC was tested, and the “PBM E-score” value was 0.0697.
ACTGCATA was tested, and the “PBM E-score” value was 0.0972.
CCGCCCAG was tested, and the “PBM E-score” value was -0.253.
For GACTGCTA, the “PBM E-score” value was -0.148.
In the case of ACCACAAC, the “PBM E-score” value is reported as 0.235.
With ATTTAGCG the “PBM E-score” value was -0.00334.
In the case of CACACTAA, the “PBM E-score” value is reported as 0.211.
For AGAGACCC, the “PBM E-score” value was -0.179.
With ACTCGTAT the “PBM E-score” value was 0.116.
GACCGTGC was tested, and the “PBM E-score” value was -0.181.
For CCGTCTCC, the “PBM E-score” value was -0.083.
With CAGGAGCG the “PBM E-score” value was -0.0281.
In the case of AAGGGTGA, the “PBM E-score” value is reported as -0.0745.
GTGAGCGA was tested, and the “PBM E-score” value was 0.127.
In the case of AGGCTGAA, the “PBM E-score” value is reported as -0.133.
With CGTTACAA the “PBM E-score” value was 0.158.
In the case of GTAACAGA, the “PBM E-score” value is reported as 0.105.
With CACTTAGA the “PBM E-score” value was 0.116.
In the case of GGACTCAA, the “PBM E-score” value is reported as -0.167.
With ATAACGAG the “PBM E-score” value was -0.00176.
In the case of GGAACGCA, the “PBM E-score” value is reported as -0.0583.
With ATATAAAT the “PBM E-score” value was 0.242.
In the case of CAGTGACA, the “PBM E-score” value is reported as -0.0302.
In the case of AACCCAAA, the “PBM E-score” value is reported as 0.0463.
In the case of ACTAGCTG, the “PBM E-score” value is reported as -0.00925.
With GAGCGGCA the “PBM E-score” value was -0.125.
CAAGCCCC was tested, and the “PBM E-score” value was -0.264.
